PubChem BioAssay AID1224830, NIAID, 2016
Screen: 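Host factors that control LPS-induced TNF expression in human macrophages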 (primary screen). Cell system: human THP-1 monocytic leukaemia cells, TNF dual-luciferase reporter clone, PMA-differentiated to macrophage-like cells. Knock-down reagent: siRNA pool against human genes, 50 nM. Timing: LPS for 4 h, given about 3 days after siRNA transfection. Conditions: bacterial LPS (TLR4 ligand), 10 ng/ml. Measured: 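TNF firefly reporter luminescence divided by renilla, normalised to the plate median, then turned into a robust z-score for each replicate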. Reading the numbers: TNF reporter robust z-score: higher = stronger TNF reporter response to LPS. Rule for the call: 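a well is active when its z-score exceeds 2.8 or falls below -1.5; control wells carry no call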.
Shown is an unselected part of about 18,000 deposited reagents. About 2,900 of all reagents (16%) count as active. 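Calls are made per well; low scores hint the gene aids the LPS response, high scores that it dampens it.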 A number with no mark means an inactive call. Repeated entries: four replicate wells of each siRNA pool.

ZNF271P → TNF reporter robust z-score = 3.23 (active)
ZNF271P → TNF reporter robust z-score = 0.74
ZNF271P → TNF reporter robust z-score = 1.42
ZNF271P → TNF reporter robust z-score = -0.44
VCP → TNF reporter robust z-score = -1.67 (active)
VCP → TNF reporter robust z-score = -1.2
VCP → TNF reporter robust z-score = -1.17
VCP → TNF reporter robust z-score = -1.28
DAGLA → TNF reporter robust z-score = 1.59
DAGLA → TNF reporter robust z-score = 0.79
DAGLA → TNF reporter robust z-score = -0.46
DAGLA → TNF reporter robust z-score = 0.47
PAFAH2 → TNF reporter robust z-score = -0.89
PAFAH2 → TNF reporter robust z-score = -0.99
PAFAH2 → TNF reporter robust z-score = -1.08
PAFAH2 → TNF reporter robust z-score = -0.39
ZNF70 → TNF reporter robust z-score = 0.26
ZNF70 → TNF reporter robust z-score = -0.12
ZNF70 → TNF reporter robust z-score = -0.7
ZNF70 → TNF reporter robust z-score = 0.18
NCALD → TNF reporter robust z-score = -0.61
NCALD → TNF reporter robust z-score = -0.32
NCALD → TNF reporter robust z-score = -0.5
NCALD → TNF reporter robust z-score = -0.31
RPP14 → TNF reporter robust z-score = -0.07
RPP14 → TNF reporter robust z-score = 0
RPP14 → TNF reporter robust z-score = 0.21
RPP14 → TNF reporter robust z-score = 0.55
ZNF114 → TNF reporter robust z-score = 0.3
ZNF114 → TNF reporter robust z-score = 1.2
ZNF114 → TNF reporter robust z-score = -0.43
ZNF114 → TNF reporter robust z-score = 0.68
RHOJ → TNF reporter robust z-score = -0.58
RHOJ → TNF reporter robust z-score = -0.83
RHOJ → TNF reporter robust z-score = -1.13
RHOJ → TNF reporter robust z-score = -0.3
CCDC85B → TNF reporter robust z-score = -1.45
CCDC85B → TNF reporter robust z-score = -1.52 (active)
CCDC85B → TNF reporter robust z-score = -1.55 (active)
CCDC85B → TNF reporter robust z-score = -1.44
SPTAN1 → TNF reporter robust z-score = 0.69
SPTAN1 → TNF reporter robust z-score = 0.93
SPTAN1 → TNF reporter robust z-score = 0.54
SPTAN1 → TNF reporter robust z-score = 0.08
AVEN → TNF reporter robust z-score = 0.11
AVEN → TNF reporter robust z-score = -0.39
AVEN → TNF reporter robust z-score = -0.19
AVEN → TNF reporter robust z-score = 0.46

8 of these entries, set out differently.
gene knocked down,TNF reporter robust z-score
VCP,-1.28
DAGLA,1.59
DAGLA,0.79
DAGLA,-0.46
DAGLA,0.47
PAFAH2,-0.89
PAFAH2,-0.99
PAFAH2,-1.08
